Measurements reported in PubChem BioAssay AID686938 (Drosophila RNAi Screening Center, 2013).
Purpose: 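Knock-downs reducing store-operated calcium influx in Drosophila cells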 (primary screen). Cells: Drosophila S2R+ cells. Reagents: long dsRNA against Drosophila genes, about 0.25 µg dsRNA per well, roughly 10,000 cells. Duration: 5 days of knock-down before the calcium assay. Conditions: thapsigargin (SERCA pump blocker) to empty calcium stores; entry signal taken 4 min after adding it. Measured: 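Per-well fluo-4 fluorescence in two replicates, unnormalised, measured in resting cells and 4 min after store depletion by the SERCA blocker thapsigargin; ratio of the two present in few wells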. Scale: calcium entry signal: higher = stronger calcium signal after store depletion; entry to resting ratio: higher = more calcium entry relative to resting level; resting calcium signal: higher = higher resting calcium signal. Hit rule: 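Called when the plate z-score of the entry-to-rest ratio, mean of duplicates, falls below −3; wells with low overall dye signal (Fmax z below −2) or more than five off-targets excluded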. Calls: active = strongly reduced calcium entry; inactive = no strong reduction.
In all, the deposit lists about 23,000 reagents; below is a random part of those that have a named target and a result. Over the whole deposit, 75 (0.33%) are marked active. 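Raw plate signals without normalisation; calls rest on plate z-scores that were not deposited; ratio present for only 364 wells.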 A plus sign joins genes that one reagent is predicted to hit. Not stated in the record: the dose of the treatment.

gene,dsRNA,"calcium entry signal, replicate 1 (fluorescence units)","calcium entry signal, replicate 2 (fluorescence units)",entry to resting ratio,"resting calcium signal, replicate 1 (fluorescence units)","resting calcium signal, replicate 2 (fluorescence units)",activity call
Or47a (Odorant receptor 47a),DRSC07491,2.64e7,3.35e7,,1.35e7,1.39e7,inactive
CG8620,DRSC11020,1.96e7,3.50e7,,1.07e7,1.65e7,inactive
Lsd-1 (Lipid storage droplet-1),DRSC14236,5.34e7,4.07e7,,2.60e7,1.81e7,inactive
Arl6 (ADP ribosylation factor-like 6),DRSC07031,4.36e7,4.36e7,,1.95e7,2.15e7,inactive
sano (serrano),DRSC06165,2.58e7,2.03e7,,1.22e7,1.00e7,inactive
Bem46,DRSC00275,2.42e7,2.77e7,,1.28e7,1.20e7,inactive
Efhc1.1 (EF-hand domain containing 1.1),DRSC20135,3.12e7,3.26e7,,1.62e7,1.52e7,inactive
cue (cueball),DRSC08248,3.05e7,2.84e7,,1.30e7,1.24e7,inactive
CG43397 + CG12902,DRSC06217,3.91e7,3.37e7,,1.90e7,1.63e7,inactive
"ScsbetaG (Succinyl-coenzyme A synthetase beta subunit, GDP-forming)",DRSC11294,3.78e7,6.31e7,,1.85e7,2.51e7,inactive
tctn + B9d2,DRSC03160,3.51e7,2.98e7,,1.87e7,1.46e7,inactive
blp (black pearl),DRSC15757,3.09e7,2.40e7,,1.42e7,6.22e7,inactive
Sxl (Sex lethal),DRSC18721,3.87e7,3.79e7,,2.02e7,1.66e7,inactive
Sxl (Sex lethal),DRSC18722,3.53e7,4.61e7,,1.78e7,2.05e7,inactive
Sxl (Sex lethal),DRSC21490,3.61e7,3.40e7,,1.93e7,1.63e7,inactive
CG34214,DRSC04490,4.34e7,,,2.08e7,,inactive
CG13168,DRSC06295,2.93e7,4.83e7,,1.38e7,1.91e7,inactive
Myo95E (Myosin 95E),DRSC15821,2.65e7,2.88e7,,1.21e7,1.38e7,inactive
CG11241,DRSC11641,2.96e7,6.02e7,,1.48e7,2.86e7,inactive
CG11241,DRSC22165,3.13e7,6.18e7,,1.57e7,2.87e7,inactive
Prosalpha5 (Proteasome alpha5 subunit),DRSC07514,1.14e7,1.21e7,,8.13e6,7.52e6,inactive
PRL-1 (PRL-1 phosphatase),DRSC03393,4.46e7,3.70e7,,2.12e7,1.80e7,inactive
Archease,DRSC16025,3.61e7,5.15e7,,5.16e7,2.31e7,inactive
Pgant6 (Polypeptide N-Acetylgalactosaminyltransferase 6),DRSC08552,3.81e7,3.88e7,,1.98e7,2.07e7,inactive
CG34451,DRSC09388,2.70e7,2.69e7,,1.35e7,1.33e7,inactive
CG34451,DRSC09389,2.71e7,2.97e7,,1.26e7,1.45e7,inactive
CG8950,DRSC07300,4.10e7,3.67e7,,1.86e7,1.73e7,inactive
CR12798 (pseudo),DRSC21078,5.13e7,5.19e7,,2.41e7,2.14e7,inactive
CG14658,DRSC12244,2.69e7,5.02e7,,1.36e7,1.84e7,inactive
Use1 (Unconventional SNARE in the ER 1),DRSC10180,2.72e7,2.92e7,,1.47e7,1.43e7,inactive
CG32413,DRSC21591,3.14e7,3.19e7,,1.59e7,1.44e7,inactive
lncRNA:CR32160 (long non-coding RNA:CR32160),DRSC22904,4.17e7,3.61e7,,2.28e7,1.73e7,inactive
Tmep (Transmembrane endosomal protein),DRSC08215,2.85e7,2.73e7,,1.36e7,1.54e7,inactive
sub (subito),DRSC06125,3.02e7,2.18e7,,1.45e7,1.04e7,inactive
CG15432,DRSC00447,2.46e7,2.35e7,,1.30e7,1.13e7,inactive
phu (phurba tashi),DRSC16390,3.39e7,2.95e7,,1.71e7,1.56e7,inactive
regucalcin,DRSC18908,2.38e7,3.81e7,,1.18e7,1.65e7,inactive
regucalcin,DRSC20366,4.17e7,4.70e7,,1.98e7,2.11e7,inactive
vrs (versager),DRSC15832,3.96e7,3.10e7,,1.96e7,1.63e7,inactive
CG9922,DRSC16579,3.64e7,5.77e7,,1.81e7,5.77e7,inactive
CG32459,DRSC11852,2.57e7,3.47e7,,1.22e7,1.52e7,inactive
Or33a (Odorant receptor 33a),DRSC03386,3.47e7,1.70e7,,1.58e7,8.82e6,inactive
Cep97 (Centrosomal protein 97kDa),DRSC00637,4.38e7,,,2.80e7,,inactive
CG31296,DRSC13092,3.92e7,2.99e7,,2.11e7,1.54e7,inactive
SmD1 (Small ribonucleoprotein particle protein SmD1),DRSC09800,9.88e6,1.28e7,,7.23e6,7.96e6,inactive
CG4733,DRSC15634,3.62e7,4.15e7,,5.82e7,1.78e7,inactive
PSMG1 (Proteasome assembly chaperone 1),DRSC12297,3.61e7,4.30e7,,1.53e7,1.92e7,inactive
trsn (translin),DRSC06078,3.75e7,3.59e7,,1.71e7,1.65e7,inactive
Galphaq (G protein alpha subunit q),DRSC07432,3.95e7,4.34e7,,1.70e7,2.06e7,inactive
AIMP1 (aaRS-interacting multifunctional protein 1),DRSC07118,4.28e7,3.78e7,,1.91e7,1.70e7,inactive
CG3634,DRSC11747,3.46e7,4.88e7,,1.80e7,2.29e7,inactive
Nup44A (Nucleoporin at 44A),DRSC07248,2.78e7,3.09e7,,1.30e7,1.48e7,inactive
CG3740,DRSC18508,3.46e7,5.07e7,2,1.71e7,2.03e7,inactive
Wdr62 (WD repeat domain 62),DRSC00081,3.28e7,4.33e7,,1.82e7,1.93e7,inactive
Wdr62 (WD repeat domain 62),DRSC00082,3.42e7,4.32e7,,1.80e7,1.92e7,inactive
Wdr62 (WD repeat domain 62),DRSC00701,4.17e7,,,2.51e7,,inactive
Wdr62 (WD repeat domain 62),DRSC21913,3.12e7,3.94e7,,1.56e7,2.21e7,inactive
CG8664,DRSC20116,3.91e7,3.70e7,,2.01e7,1.63e7,inactive

An excerpt taken from the entries so far, for reference:
gene,dsRNA,"calcium entry signal, replicate 1 (fluorescence units)","calcium entry signal, replicate 2 (fluorescence units)",entry to resting ratio,"resting calcium signal, replicate 1 (fluorescence units)","resting calcium signal, replicate 2 (fluorescence units)",activity call
phu (phurba tashi),DRSC16390,3.39e7,2.95e7,,1.71e7,1.56e7,inactive
regucalcin,DRSC18908,2.38e7,3.81e7,,1.18e7,1.65e7,inactive
regucalcin,DRSC20366,4.17e7,4.70e7,,1.98e7,2.11e7,inactive
vrs (versager),DRSC15832,3.96e7,3.10e7,,1.96e7,1.63e7,inactive
CG9922,DRSC16579,3.64e7,5.77e7,,1.81e7,5.77e7,inactive
CG32459,DRSC11852,2.57e7,3.47e7,,1.22e7,1.52e7,inactive
Or33a (Odorant receptor 33a),DRSC03386,3.47e7,1.70e7,,1.58e7,8.82e6,inactive
Cep97 (Centrosomal protein 97kDa),DRSC00637,4.38e7,,,2.80e7,,inactive
CG31296,DRSC13092,3.92e7,2.99e7,,2.11e7,1.54e7,inactive
